Results: US20210093637A1, “TOPICAL OINTMENT FORMULATIONS OF PDE-4 INHIBITOR AND THEIR USE IN TREATING SKIN CONDITIONS” (Dermavant Sciences GmbH, priority 2017, published 2021)
At least one structure is not confirmed: it was looked up by name or label, or the drawing left a doubt.

What was measured:
[1] = Conversion of E6005 to M11 in human dried blood spots; type: physicochemical; details: 160 ng/mL
NC/Nga mice [2] = assay: Prophylactic study in DNCB-induced atopic dermatitis NC/Nga mice (treatment days 1-14); type: in vivo, mouse; details: day 15, dose-dependent
Text: (§1) Atopic dermatitis (AD) was induced in specific pathogen-free (SPF) female NC/Nga mice (n=8/group), 8-12 weeks old, by repeated percutaneous applications of dinitrochlorobenzene (DNCB) to the dorsal skin of the ears and back on days 4, 7, 10, and 13. NC/Nga mice are an established mouse model for atopic dermatitis. See Suto et al. NC/Nga mice: a mouse model for atopic dermatitis; Int Arch Allergy Immunol. 1999; 120 Suppl 1:70-5; and Gao et al., Establishment of allergic dermatitis in NC/Nga mice as a model for severe atopic dermatitis, Biol. Pharm. Bull. 2004 September; 27(9): 1376-81.
(§2) A prophylactic study and a therapeutic study was conducted: • 1. Prophylactic study: 0.2% formulation (C1), 0.5% formulation (C2), RVT-501 placebo, tacrolimus placebo, 0.1% tacrolimus, or no treatment (AD control) on days 1-14 or sham-induction of AD. • 2. Therapeutic study: 0.2% formulation (C1), 0.5% formulation (C2), active ingredient placebo, tacrolimus placebo, 0.1% tacrolimus, or no treatment (AD control) on days 8-14.
(§3) Scratching assays were performed on days 2, 8, 11, 14 in both studies. Skin samples were harvested for histopathology and cytokine analysis on day 15. Histopathology of sham-induced versus DNCB-induced mouse skin indicates clear presence of atopic dermatitis.

NC/Nga mice [3] = assay: Therapeutic study in DNCB-induced atopic dermatitis NC/Nga mice (treatment days 8-14); type: in vivo, mouse; details: day 15
Text: as §1, §2, §3

human PDE4 = details: cited from earlier work
[4] = tested on: pediatric subjects aged 2 to 15 years with mild to moderate AD; details: 0.2% ointment BID 14 days; cited from earlier work
[5] = Stability of E6005 and M11 in human dried blood spots; type: physicochemical
Protocol: Stability: Following stability of E6005 and M11 in DBS was assessed at low and high concentrations using LQC and HQC samples (three replicates/concentration): bench-top stability for 7 days at room temperature, long-term frozen stability for 160 days […] below −15° C., and processed sample stability for 85 h at 4° C. To investigate impacts of high humidity on the stability, bench-top stability test was performed at room temperature with relative humidity of ca. 80%-84%. Samples were considered stable when % bias from the nominal concentrations was within ±15%.

[6] = tested on: adults with mild to moderate AD; details: 0.2% ointment BID; Week 4; not statistically significant; cited from earlier work
[7] = tested on: Japanese male subjects with AD; details: cited from earlier work

## CNc1nc(-c2cccc(NC(=O)c3ccc(C(=O)OC)cc3)c2)c2cc(OC)c(OC)cc2n1 [RVT-501, methyl N-[3-(6,7-dimethoxy-2-methylaminoquinazolin-4-yl)phenyl]terephthalamic acid]
[1]; Bench-top in blood, 7 days at RT
  Conversion (%) of E6005 to M11: 1.0%
[1]; Bench-top in blood, 33 days at RT
  Conversion (%) of E6005 to M11: 1.2%
[1]; Bench-top in blood, 91 days at RT
  Conversion (%) of E6005 to M11: 2.1%
[1]; Bench-top in blood, 160 days at RT
  Conversion (%) of E6005 to M11: 2.2%
[1]; Frozen in blood, 33 days below −15° C.
  Conversion (%) of E6005 to M11: 1.0%
[1]; Frozen in blood, 91 days below −15° C.
  Conversion (%) of E6005 to M11: 1.2%
[1]; Frozen in blood, 160 days below −15° C.
  Conversion (%) of E6005 to M11: 1.2%
[1]; In processed samples, 85 h at 4° C.
  Conversion (%) of E6005 to M11: 0%
NC/Nga mice [2]
  G-CSF, GM-CSF, KC, MIP-1α, and TNF-α in skin: significantly reduced
NC/Nga mice [3]
  Il-1β in skin: significant dose-dependent decrease
Human PDE4
  IC50: 2.8 nM
[4]
  Improvements in SSTE and Investigator's Global Assessment vs. vehicle: consistently seen
[5]; Bench-top, after 7 days at RT, HQC (160 ng/mL)
  % bias: −1.3%
[5]; Bench-top, after 7 days at RT, LQC (3 ng/mL)
  % bias: 4.0%
[5]; In processed samples, after 85 h at 4° C., HQC (160 ng/mL)
  % bias: 1.2%
[5]; In processed samples, after 85 h at 4° C., LQC (1 ng/mL)
  % bias: 6.8%
[5]; Long-term, after 160 days at RT, HQC (160 ng/mL)
  % bias: −3.1%
[5]; Long-term, after 160 days at RT, LQC (3 ng/mL)
  % bias: −0.7%
[5]; Long-term, after 160 days below −15° C., HQC (160 ng/mL)
  % bias: −3.1%
[5]; Long-term, after 160 days below −15° C., LQC (3 ng/mL)
  % bias: −1.7%
[5]; Under high humidity, after 7 days at humidity 80-84%, HQC (160 ng/mL)
  % bias: −9.4%
[5]; Under high humidity, after 7 days at humidity 80-84%, LQC (3 ng/mL)
  % bias: −2.0%
[6]
  improvements in EASI and SCORAD scores versus vehicle: greater improvements
[7]; 0.03%, 0.1%, and 0.2% ointment groups, up to 10 days
  severity scores of targeted eczema (SSTE) on the back, end of study vs baseline: significantly reduced
[7]; 0.2% ointment group
  SSTE least squares mean difference from vehicle at the end of the study: statistically significant
